The results in this text go back to US20230020036A1, “TREATMENT OF EPILEPTIC CONDITIONS WITH GABAA RECEPTOR MODULATORS” (NEUROCYCLE THERAPEUTICS, INC., priority 2019, published 2023).

In this series the test system is Scn1a+/- heterozygous knockout mice ([129xB]F1.Scn1a+/-), heat-induced seizures. Kind of series: Hyperthermia-induced seizure study in Scn1a+/- heterozygous knockout mice. It is filed as in vivo, mouse. The following applies: for Base. Temp: summary. The source says: Reason for selection of species: The Scn1a^+/− knockout mouse ([129xB]F1. Scn1a^+/−) is a model subject of DS with a high translational value.
Between P14 and 16, Scn1a^+/− heterozygous knockout mice are randomly assigned to treatment groups (n=7 males, 7 females/treatment group). The Scn1a^+/− knockout mouse model was chosen because it is an art accepted animal model for epileptic conditions, including for Dravet Syndrome. Treatments are GABAA receptor modulator 1 (“Compound 1” as a phosphate salt at 0.1, 0.3, 1.0 mg/kg), GABAA receptor modulator 2 (“Compound 2” at 3, 10, 30, 100 mg/kg), vehicle, or Clobazam (“CBZ”) (10 mg/kg; positive control).
The GABAA receptor modulators were administered intraperitoneally (i.p.) using a 0.5 or 1-ml plastic syringe fitted with a 27 or 30 gauge 0.5″-long beveled needle.
Animals received 10 mL of formulation per kg of body weight as measured on the day of experiment.
In order to verify the dose concentration, mice were dosed with a test article or control and placed into individual housing cages. A temperature probe was gently inserted into the mouse's rectum and secured by taping the probe's wire to the mouse's tail with the tag end on the mouse's dorsal side. For each group, the insertion of the probe was as follows: • a. For mice administered CBZ, five (5) mins passed before insertion of the probe in order to allow 20-30 min pretreatment time when the state of hyperthermia reached. • b. For mice administered Compound 1, thirty-five (35) mins passed before insertion of the probe in order to allow 50-60 min pretreatment time when the state of hyperthermia is reached. • c. For mice administered […], five (5) mins passed before insertion of the probe in order to allow 20-30 min pretreatment time when the state of hyperthermia reached.
Each mouse was allowed to acclimate to the temperature probe for five (5) minutes before recording the baseline temperature. FIGS. 1-3 depict the starting temperatures of the female mice, the male mice, and the average starting temperatures of all mice prior to inducing the heat-induced seizures.
FIGS. 4-6 depict the final core body temperature of the female mice, the male mice, and the average final core body temperature of all mice after heating. FIGS. 7-9 illustrate the total temperature change for the female mice, the male mice, and average of all mice; while FIGS. 10-12 depict the average temperature change per minute for the female mice, the male mice, and average of all mice. The mouse's body temperature was maintained at 42.5° C. for 3 mins. If no seizure occurred, the mouse was considered seizure-free.

Consider `C#Cc1ccc2c(c1)C(c1ccccn1)=NCc1c(-c3nc(CC)no3)ncn1-2` [Compound 2], for which the “average change in body temperature per minute” value (100 mg/k, all mice, FIG. 12, lowest rate of all groups) was “about 0.4 ° C./min”. Besides, the “Base. Temp” value by setting is: (3 mg/kg (n = 14)) 35.28 °C; (10 mg/kg (n = 14)) 35.27 °C; (30 mg/kg (n = 15)) 35.25 °C; (100 mg/kg (n = 8)) 34.60 °C.

As for `CN1C(=O)CC(=O)N(c2ccccc2)c2cc(Cl)ccc21` [Clobazam, reference compound], the “Base. Temp” value (10 mg/kg (n = 24)) amounted to 34.82 °C.

Consider `CC(C)(O)c1cnn2c(-c3ccc(F)c(-c4c(F)cccc4C#N)c3)cnc2n1` [Compound 1], for which the “Base. Temp” value (0.1 mg/kg (n = 16)) was found to be 35.15 °C, the “Base. Temp” value (0.3 mg/kg (n = 18)) amounted to 35.20 °C and the “Base. Temp” value (1.0 mg/kg (n = 22)) amounted to 35.34 °C.
